Results deposited as PubChem BioAssay AID743121 (NCATS, 2013).

Aim: 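Genes whose silencing strengthens cell killing by camptothecin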 (primary screen)
System: MDA-MB-231 cells, a human breast cancer line
Reagents: single siRNA against human genes, 20 nM siRNA (0.8 pmol per well)
Time to read-out: 120 h (drug added 48 h after transfection, read 72 h later)
Treatment: camptothecin 20 nM (about EC30) for 72 h; vehicle 0.1% DMSO in parallel plates
Measured: 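Cell viability by ATP luminescence (CellTiter-Glo) as % of non-targeting siRNA wells, and the log2 ratio of viability without drug over viability with camptothecin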
Direction: log2 vehicle/camptothecin viability: higher = stronger sensitisation to camptothecin
Hit rule: 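Active genes have an RSA gene-level p-value below 0.001, computed from the ratios of their separate siRNAs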
The whole screen tested about 26,000 reagents; shown is a random part of them. In the full data, 167 (0.63%) were called active. 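Calls are per gene from RSA p-values that are not deposited; an individual active-marked siRNA can sensitise only weakly.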 Unmarked entries are inactive. Further read-outs or replicates are left out here.

After knock-down of APRT (adenine phosphoribosyltransferase) [SID164353794], the record shows log2 vehicle/camptothecin viability -0.0295.
After knock-down of APRT (adenine phosphoribosyltransferase) [SID164353796], the record shows log2 vehicle/camptothecin viability -0.529.
APRT (adenine phosphoribosyltransferase) [SID164353797] gave log2 vehicle/camptothecin viability -0.248.
Against APRT (adenine phosphoribosyltransferase) [SID164353798], the entry reads log2 vehicle/camptothecin viability -0.118.
AURKAIP1 (aurora kinase A interacting protein 1) [SID164482053] gave log2 vehicle/camptothecin viability -0.282.
AURKAIP1 (aurora kinase A interacting protein 1) [SID164482055] gave log2 vehicle/camptothecin viability 1.78.
For AURKAIP1 (aurora kinase A interacting protein 1) [SID164482057], the entry reads log2 vehicle/camptothecin viability -0.0328.
Knock-down of AURKAIP1 (aurora kinase A interacting protein 1) [SID164482058] gave: log2 vehicle/camptothecin viability 0.338.
With knock-down of PPP2CB (protein phosphatase 2 catalytic subunit beta) [SID164382138] the results were log2 vehicle/camptothecin viability -0.391.
Depletion of PPP2CB (protein phosphatase 2 catalytic subunit beta) [SID164382140] gave: log2 vehicle/camptothecin viability -0.59.
With knock-down of PPP2CB (protein phosphatase 2 catalytic subunit beta) [SID164382141], the screen gave log2 vehicle/camptothecin viability -0.406.
PPP2CB (protein phosphatase 2 catalytic subunit beta) [SID164382143] gave log2 vehicle/camptothecin viability -0.343.
TPCN2 (two pore segment channel 2) [SID164591846] scored log2 vehicle/camptothecin viability -0.151.
With knock-down of TPCN2 (two pore segment channel 2) [SID164591849], the record shows log2 vehicle/camptothecin viability 0.143.
Against TPCN2 (two pore segment channel 2) [SID164591854], the values are log2 vehicle/camptothecin viability 0.0626.
